Laboratory results from PMC8876908.
Results are given in words; binding and its absence hold for the method and conditions named. In cells and extracts the contact can be indirect. Some results given as binding are weak or reduced against the parent protein; the word gives no strength. Blank lines part the entries; values can stand above or below the binder they belong to.

How the values were obtained:
[1] = biological target: T1, JNK-interacting protein-2 (JIP2) (rat (endogenous in H9C2)) (UniProt G3V9M2); experiment: co-IP; cell lysates in Co-IP lysis buffer with protease inhibitor, 2 ug primary antibody or IgG, protein A/G beads overnight at 4°C, three washes, Western blotting
T1 sequence: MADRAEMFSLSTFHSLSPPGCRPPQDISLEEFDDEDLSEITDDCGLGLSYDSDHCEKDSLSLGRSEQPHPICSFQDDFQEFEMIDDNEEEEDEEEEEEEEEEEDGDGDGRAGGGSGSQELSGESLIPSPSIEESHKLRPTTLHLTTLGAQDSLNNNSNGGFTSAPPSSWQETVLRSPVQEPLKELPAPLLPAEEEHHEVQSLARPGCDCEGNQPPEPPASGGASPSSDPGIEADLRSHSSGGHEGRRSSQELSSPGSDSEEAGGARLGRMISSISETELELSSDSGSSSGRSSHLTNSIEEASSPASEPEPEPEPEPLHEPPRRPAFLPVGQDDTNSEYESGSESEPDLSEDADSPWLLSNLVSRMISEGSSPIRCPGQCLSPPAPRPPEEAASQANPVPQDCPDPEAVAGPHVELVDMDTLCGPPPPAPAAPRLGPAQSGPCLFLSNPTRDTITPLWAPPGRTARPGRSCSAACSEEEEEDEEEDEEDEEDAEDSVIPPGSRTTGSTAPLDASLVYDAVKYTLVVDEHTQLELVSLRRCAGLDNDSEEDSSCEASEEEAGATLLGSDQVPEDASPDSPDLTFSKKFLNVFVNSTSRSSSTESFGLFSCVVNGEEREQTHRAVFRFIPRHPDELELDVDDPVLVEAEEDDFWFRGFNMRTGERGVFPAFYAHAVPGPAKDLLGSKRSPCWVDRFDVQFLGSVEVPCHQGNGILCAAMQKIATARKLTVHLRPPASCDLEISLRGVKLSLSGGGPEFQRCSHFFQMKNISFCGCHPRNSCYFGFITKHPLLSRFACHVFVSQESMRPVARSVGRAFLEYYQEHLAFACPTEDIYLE

[2] = biological target: T2, protein numb homolog (NUMB) (rat (endogenous in H9C2)) (UniProt Q2LC84); experiment: as above
T2 sequence: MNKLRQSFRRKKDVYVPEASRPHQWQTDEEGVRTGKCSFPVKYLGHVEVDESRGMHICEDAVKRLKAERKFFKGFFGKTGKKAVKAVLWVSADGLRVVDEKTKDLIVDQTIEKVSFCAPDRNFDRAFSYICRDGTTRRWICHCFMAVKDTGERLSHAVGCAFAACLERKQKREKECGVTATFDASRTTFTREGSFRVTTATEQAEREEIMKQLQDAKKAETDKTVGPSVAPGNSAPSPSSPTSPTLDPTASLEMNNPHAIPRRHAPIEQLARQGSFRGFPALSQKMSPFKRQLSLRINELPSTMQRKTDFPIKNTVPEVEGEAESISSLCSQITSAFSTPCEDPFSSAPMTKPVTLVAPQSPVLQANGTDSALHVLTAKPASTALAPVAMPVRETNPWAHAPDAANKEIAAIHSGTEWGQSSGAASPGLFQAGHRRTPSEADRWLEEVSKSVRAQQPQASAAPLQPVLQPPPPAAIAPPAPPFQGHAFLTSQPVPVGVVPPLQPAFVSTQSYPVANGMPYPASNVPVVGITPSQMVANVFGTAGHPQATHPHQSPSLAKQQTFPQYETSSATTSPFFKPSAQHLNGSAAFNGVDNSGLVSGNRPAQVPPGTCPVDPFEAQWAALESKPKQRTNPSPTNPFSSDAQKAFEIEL

binding [1]: binds | binding [2]: binds
B1: Lysosomal associated membrane protein 1 (LAMP1) (protein, UniProt P14562 22-407)
chain: APALFEVKDNNGTACIMASFSASFLTTYDAGHVSKVSNMTLPASAEVLKNSSSCGEKNASEPTLAITFGEGYLLKLTFTKNTTRYSVQHMYFTYNLSDTQFFPNASSKGPDTVDSTTDIKADINKTYRCVSDIRVYMKNVTIVLWDATIQAYLPSSNFSKEETRCPQDQPSPTTGPPSPSPPLVPTNPSVSKYNVTGDNGTCLLASMALQLNITYMKKDNTTVTRAFNINPSDKYSGTCGAQLVTLKVGNKSRVLELQFGMNATSSLFFLQGVQLNMTLPDAIEPTFSTSNYSLKALQASVGNSYKCNSEEHIFVSKALALNVFSVQVQAFRVESDRFGSVEECVQDGNNMLIPIAVGGALAGLVLIVLIAYLIGRKRSHAGYQTI

binding [1]: binds
B2: protein numb homolog (NUMB) (protein, UniProt Q2LC84 1-652)
chain: T2 sequence
